Structures are written as SMILES.

Amino acid sequences for entries named in this document (tags omitted). A change or cut given only in a name is not applied to a line headed by its entry.
UniProt H2KYN9: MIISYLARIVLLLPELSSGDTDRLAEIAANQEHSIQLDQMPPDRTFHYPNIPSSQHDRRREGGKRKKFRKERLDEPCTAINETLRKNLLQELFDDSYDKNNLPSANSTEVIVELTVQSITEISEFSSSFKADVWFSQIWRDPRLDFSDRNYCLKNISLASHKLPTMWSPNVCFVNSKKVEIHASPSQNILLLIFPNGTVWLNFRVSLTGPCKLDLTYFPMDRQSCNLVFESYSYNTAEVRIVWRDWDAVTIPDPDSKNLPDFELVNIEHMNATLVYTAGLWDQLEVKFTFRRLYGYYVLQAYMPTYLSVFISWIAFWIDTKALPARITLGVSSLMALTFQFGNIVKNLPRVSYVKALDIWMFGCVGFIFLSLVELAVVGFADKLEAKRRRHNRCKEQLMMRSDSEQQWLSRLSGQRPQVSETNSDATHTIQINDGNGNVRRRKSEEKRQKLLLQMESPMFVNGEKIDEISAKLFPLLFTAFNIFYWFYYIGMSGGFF

The assay deals with LGC-53 (Caenorhabditis elegans, UniProt H2KYN9). In words: Inhibition of dopamine-evoked LGC-53 currents in Xenopus oocytes. The class given is cell-based.

On to `O=C(CCCN1CCC(O)(c2ccc(Cl)cc2)CC1)c1ccc(F)cc1` [haloperidol], for which the IC50 – broadly, the midpoint of a concentration-inhibition curve – was determined as 32 µM.
For `Cc1nc2n(c(=O)c1CCN1CCC(c3noc4cc(F)ccc34)CC1)CCCC2` [risperidone] the value was 40 µM.

For the origin of these results see PMC2963310 (Science (New York, N.Y.), 2009).
